For at least one compound, name, drawing or mass did not settle the structure.
Tests used:
26S proteasome [1] = molecular target: T1, 26S proteasome (Homo sapiens, UniProt P54578+Q9Y5K5); test: De-ubiquitinase activity assay, Ub-AMC cleavage by 26S proteasome; type: biochemical; details: purified 26S proteasomes
T1 construct: purchased Boston Biochem E-365

Amino acid sequences for entries named in this document (tags omitted). A change or cut given only in a name is not applied to a line headed by its entry.
UniProt P54578: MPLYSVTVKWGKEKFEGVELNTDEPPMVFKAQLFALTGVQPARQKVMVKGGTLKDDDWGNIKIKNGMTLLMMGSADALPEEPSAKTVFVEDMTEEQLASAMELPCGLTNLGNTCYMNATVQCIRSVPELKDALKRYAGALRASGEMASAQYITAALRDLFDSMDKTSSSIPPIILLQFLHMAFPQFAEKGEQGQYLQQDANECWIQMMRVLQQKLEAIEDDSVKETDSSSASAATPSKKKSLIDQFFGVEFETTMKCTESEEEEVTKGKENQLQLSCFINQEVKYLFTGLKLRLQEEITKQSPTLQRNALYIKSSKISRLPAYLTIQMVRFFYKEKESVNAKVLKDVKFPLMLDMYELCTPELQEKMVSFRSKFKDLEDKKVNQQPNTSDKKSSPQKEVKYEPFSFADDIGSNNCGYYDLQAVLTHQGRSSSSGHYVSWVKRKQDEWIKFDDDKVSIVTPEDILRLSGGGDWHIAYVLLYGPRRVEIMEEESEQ
UniProt Q9Y5K5: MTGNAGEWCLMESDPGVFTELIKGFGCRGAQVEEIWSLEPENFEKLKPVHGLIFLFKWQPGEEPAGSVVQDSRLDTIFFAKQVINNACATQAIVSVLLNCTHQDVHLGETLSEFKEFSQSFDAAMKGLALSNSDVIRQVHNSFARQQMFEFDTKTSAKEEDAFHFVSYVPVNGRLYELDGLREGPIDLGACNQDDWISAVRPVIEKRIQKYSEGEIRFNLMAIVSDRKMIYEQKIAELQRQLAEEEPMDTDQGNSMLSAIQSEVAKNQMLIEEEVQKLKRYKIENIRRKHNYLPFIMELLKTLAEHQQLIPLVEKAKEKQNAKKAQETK
UniProt P28072: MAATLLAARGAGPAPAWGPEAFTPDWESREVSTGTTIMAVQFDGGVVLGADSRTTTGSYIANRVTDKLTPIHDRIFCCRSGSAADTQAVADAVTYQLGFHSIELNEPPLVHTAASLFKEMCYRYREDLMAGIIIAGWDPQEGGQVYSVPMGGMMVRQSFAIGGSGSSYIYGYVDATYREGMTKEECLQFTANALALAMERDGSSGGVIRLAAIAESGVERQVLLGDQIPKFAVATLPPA
UniProt P28074: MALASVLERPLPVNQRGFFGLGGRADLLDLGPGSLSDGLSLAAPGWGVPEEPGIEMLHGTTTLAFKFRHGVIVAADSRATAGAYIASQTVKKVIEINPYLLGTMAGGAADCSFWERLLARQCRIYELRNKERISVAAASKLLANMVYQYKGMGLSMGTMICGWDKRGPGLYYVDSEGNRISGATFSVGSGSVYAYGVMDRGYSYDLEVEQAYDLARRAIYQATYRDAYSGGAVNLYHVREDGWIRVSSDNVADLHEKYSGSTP
UniProt Q99436: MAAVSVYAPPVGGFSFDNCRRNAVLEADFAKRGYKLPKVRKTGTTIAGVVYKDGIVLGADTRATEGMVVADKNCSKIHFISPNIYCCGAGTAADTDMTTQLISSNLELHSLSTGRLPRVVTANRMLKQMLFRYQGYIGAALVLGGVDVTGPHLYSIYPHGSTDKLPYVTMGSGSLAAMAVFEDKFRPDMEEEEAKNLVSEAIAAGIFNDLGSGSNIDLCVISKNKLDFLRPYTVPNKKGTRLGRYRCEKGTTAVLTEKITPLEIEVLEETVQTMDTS

UCHL5 = molecular target: T2, UCHL5 (Homo sapiens, UniProt Q9Y5K5); test: Competitive HA-UbVS active site labelling of proteasomal DUBs; type: binding; details: 19S RP or 26S proteasomes incubated with b-AP15
T2 construct: purchased Boston Biochem E-366 / E-365

[2] = system: recombinant non-proteasomal cysteine DUBs (UCH-L1, UCH-L3, USP2CD, USP7CD, USP8CD, BAP1); test: DUB inhibition assay on recombinant non-proteasomal DUBs; type: biochemical; details: Ub-AMC
C1498 AML cells = test: AML model, infiltration in liver and ovary; type: in vivo, C57BL/6J mice; details: 5 mg/kg i.p. for 7 days
HCT-116 cells = test: Cell-cycle analysis, propidium iodide flow cytometry; type: cell-based
human 20S proteasome = molecular target: T3, human 20S proteasome (Homo sapiens, UniProt P28072+P28074+Q99436); test: In vitro proteasome activity assay, 20S CP with activity-specific substrates; type: biochemical; details: chymotrypsin-like, caspase-like and trypsin-like; b-AP15 50 μM
T3 construct: purchased Boston Biochem E-360

HTC-116 cells = test: Cellular DUB activity in lysates of treated cells, Ub-AMC cleavage; type: cell-based; details: cells treated 3 h with 1 μM
[3] = system: FaDu head and neck carcinoma xenografts; test: FaDu head and neck carcinoma xenografts in SCID mice; type: in vivo; details: 5 mg/kg s.c. daily
Protocol: In vitro proteasome activity assays were performed in black 96-well microtitier plates using human 20S proteasome (Boston Biochem) in reaction buffer (25 mM Hepes, 0.5 mM EDTA, 0.03% SDS) with Suc-LLVY-AMC, Z-LLE-AMC or Boc-LRRAMC used as substrates for proteasome activity. De-ubiquitinase activity assays were performed with human 19S RP (Boston Biochem) with ubiquitin-AMC as substrate. For FaDu xenograft studies a 100-μl-cell suspension containing 1×10^6 cells was injected subcutaneously into the flank of SCID. Upon tumor take mice were randomized into control or treatment groups and administered with 5 mg kg^−1 b-AP15 or vehicle. In vivo levels of apoptosis and cell death were determined from the detection of caspase cleaved and total levels of cytokeratin-18 in plasma using M30 Apoptosense® and M65 ELISA®s assays (Peviva). […]
Animal experiments were conducted in full accordance with Swedish governmental statutory regulations on animal welfare under permission from local ethical committees. […] All mice were monitored and weighed daily. […] After injection, tumor growth was measured daily with calipers and the tumor volume calculated by the formula L×W^2×0.44. […] Nineteen days after malignant cell injection all of the mice were killed and histopathological manifestations of liver, ovary (target organs for this model of tumor) were evaluated and compared between groups. […]

19S RP [4] = molecular target: T4, 19S RP (Homo sapiens, UniProt P54578+Q9Y5K5); test: De-ubiquitinase activity assay, Ub-AMC cleavage by 19S RP; type: biochemical
T4 construct: purchased Boston Biochem E-366

[5] = system: HCT-116 Bcl2+ colon carcinoma xenografts; test: HCT-116 Bcl2+ colon carcinoma xenografts in nude mice, tumor onset; type: in vivo
Protocol: Animal experiments were conducted in full accordance with Swedish governmental statutory regulations on animal welfare under permission from local ethical committees. Animals were housed at a max of five per cage and provided with sterile water and food ad libitum. All mice were monitored and weighed daily. For the head and neck carcinoma model a 100-μl cell suspension containing 1×10^6 FaDu cells was injected subcutaneously into the right rear flank of the animals. After injection, tumor growth was measured daily with calipers and the tumor volume calculated by the formula L×W^2×0.44. When tumors had grown to a size of approximately 200 mm^3 (Day 0) mice were randomized to receive either vehicle (n=10) or b-AP15 5 mg/kg by subcutaneous injection s.c. (n=15) daily. […] Nineteen days after malignant cell injection all of the mice were killed and histopathological manifestations of liver, ovary (target organs for this model of tumor) were evaluated and compared between groups. […]
SCID mice bearing FaDu human tumor xenografts were randomized at tumor take (200 mm^3) and treated by daily subcutaneous injection with either vehicle (n=10) or 5 mg kg^−1 b-AP15 (n=15) for 10 days. […] Mice were treated with vehicle (n=6) or 5 mg kg^−1 b-AP15 (n=6) 4-5 times weekly for 3 weeks and monitored for tumor onset (log-rank, P=0.0136, hazard ratio=7.9). […]

19S RP [6] = molecular target: T4, 19S RP; test: Ubiquitin-cleavage and ubiquitin chain disassembly assay with 19S RP; type: biochemical; details: b-AP15 50 μM, immunoblot
26S proteasome [7] = molecular target: T5, 26S proteasome (Homo sapiens, UniProt P28072+P28074+Q99436); test: In vitro proteasome activity assay, 26S proteasome with activity-specific substrates; type: biochemical; details: chymotrypsin-like, caspase-like and trypsin-like; b-AP15 50 μM
T5 construct: purchased Boston Biochem E-365

[8] = system: colon carcinoma HCT116 cells; test: Immunoblot of ubiquitin conjugation; type: cell-based; details: 1 μM; in comparison with bortezomib
USP14 = molecular target: T6, USP14 (Homo sapiens, UniProt P54578); test: Competitive HA-UbVS active site labelling of proteasomal DUBs; type: binding; details: 19S RP or 26S proteasomes incubated with b-AP15
T6 construct: purchased Boston Biochem E-366 / E-365

Question: What does the source list for `C=CC(=O)N1C/C(=C\c2ccc([N+](=O)[O-])cc2)C(=O)/C(=C/c2ccc([N+](=O)[O-])cc2)C1` [b-AP15, (3E,5E)-3,5-bis[(4-nitrophenyl)methylidene]-1-(prop-2-enoyl)piperidin-4-one]?
Answer: deubiquitinating activity of 26S proteasome (26S proteasome [1]): inhibits the deubiquitinating activity; Ub-VS labelling of UCHL5 (UCHL5): abolished Ub-VS labelling; inhibition of recombinant non-proteasomal cysteine DUBs [2]: minimal inhibition; AML infiltration in liver and ovary (C1498 AML cells): few infiltrated blasts and normal morphology; cell cycle effect (HCT-116 cells): growth arrest in the G2/M phase boundary; proteolytic activities of the 20S CP (human 20S proteasome): do not show inhibition; cellular DUB activity (Ub-AMC cleavage) (HTC-116 cells): no reduction in Ub-AMC cleavage; plasma levels of total human CK18 ([3]; p=0.01): significant increase; levels of caspase cleaved CK18 (CK18-Asp396) compared with total levels ([3]; plasma): increased moderately; deubiquitinating activity of 19S RP (19S RP [4]; Ub-AMC, purified 19S RP): inhibits the deubiquitinating activity; effect of glutathione on inhibition of 19S DUB activity (19S RP [4]; b-AP15 10 μM with GSH 2 mM): did not reduce b-AP15 mediated inhibition; tumor onset in comparison to vehicle treated controls ([5]; 5 mg/kg i.p.): significant delay in tumor onset; treated animals completely disease free at the end of the study ([5]; 5 mg/kg i.p. 4-5 times weekly for 3 weeks, n=6): 2 out of 6; 19S RP processing of K48 and K63 linked ubiquitin tetramers (19S RP [6]): inhibited; cleavage of Ub-GFP and ubiquinated HDM2 by 19S RP (19S RP [6]): efficiently inhibited; proteolytic activities of the 26S proteasome (26S proteasome [7]): do not show inhibition; level of ubiquitin conjugation [8]: rapid time dependent accumulation of polyubiquitinated proteins of a higher molecular weight; Ub-VS labelling of USP14 (USP14): abolished Ub-VS labelling

Source: patent US20130079370A1, “Method for the Inhibition of Deubiquitinating Activity” (priority 2011, published 2013)
